Measurements reported in patent publication US8481752B2, “Fluorescent imaging with substituted cyanine dyes” (Li-Cor, Inc., priority 2009, dated 2013).
Values joined by “and” are separate entries in the source; they are usually repeats but may differ in a detail not shown here. Equal entries are not always repeated. A unit is not stated for every read-out.

System: actin
Experiment: Western blot of Jurkat lysate, anti-actin and Biotin-SP GAM, detected with 680 streptavidin bioconjugates
Conditions: for Sample Mean Intensity: mean of two blots; for Bkgd Intensity / Sample Fluorescence Intensity: single blots, conjugate 0.4 μg/ml; for Bkgd % of Control / Sample % Intensity of Control: control IRDye 680 Streptavidin

Substance | Sample Mean Intensity | Bkgd Intensity | Sample Fluorescence Intensity | Bkgd % of Control | Sample % Intensity of Control
IRDye ® 680-Streptavidin: commercially available IRDye® 680 streptavidin conjugate | 18.6 | 302 Counts and 293 Counts | 15.7 K Counts and 21.4 K Counts | – | –
SA-Compound 8 D/P 1.1: streptavidin conjugate of compound 8, D/P 1.1 | 50.9 | 333 Counts and 348 Counts | 46.0 K Counts and 55.8 K Counts | 114% | 274%
SA-Compound 8 D/P 1.3: streptavidin conjugate of compound 8, D/P 1.3 | 41.5 | 348 Counts and 350 Counts | 51.3 K Counts and 31.7 K Counts | 117% | 224%
SA-Compound 8 D/P 2.0: streptavidin conjugate of compound 8, D/P 2.0 | 56.8 | 411 Counts and 364 Counts | – | 130% | 306%
